{"source": "the supplement of paper PMC11438910", "binders": {"B1": {"name": "3S41.1 (protein)", "chain 1": "EVQLVESGGGLVQPGGSLRLSCATSGFTFRNYWMYWFRQAPGKGLDWVSSISDSSSNTFYSDSVKGRFTISRDNAKNTLYLQMNSLRAEDTAVYYCARRPIAAATGVYWYFDLWGPGTPITVSS", "chain 2": "EIVMTQSPATLSLSPGERATLSCRASQNIGSNLAWYQQKPGRAPKLLIYDASSRATGIPDRFSASGSGTDFTLTISSLEPEDVGVYYCQQYNNWKIFGPGTKLEIK"}}, "test_in_all_cases": "fluorescence intensity of antibody binding to polysaccharide-coupled beads; higher = stronger binding", "key": {"[1]": {"biological_target": "pneumococcal polysaccharide C-Poly-1"}, "[2]": {"biological_target": "pneumococcal polysaccharide C-Poly-2"}, "[3]": {"biological_target": "pneumococcal polysaccharide Pn1"}, "[4]": {"biological_target": "pneumococcal polysaccharide Pn10A"}, "[5]": {"biological_target": "pneumococcal polysaccharide Pn10B"}, "[6]": {"conditions": "antibody concentration 0.1 ng/mL"}, "[7]": {"conditions": "antibody concentration 0.534724 ng/mL"}, "[8]": {"conditions": "antibody concentration 2.8593 ng/mL"}, "[9]": {"conditions": "antibody concentration 15.2894 ng/mL"}, "[10]": {"conditions": "antibody concentration 81.7561 ng/mL"}, "[11]": {"conditions": "antibody concentration 437.17 ng/mL"}, "[12]": {"conditions": "antibody concentration 2337.65 ng/mL"}}, "note": "The other results are listed elsewhere or left out. The signal is at background level for most entries.", "data": [{"binder": "B1", "values": [{"measurement": "fluorescence intensity", "setting": "[1]; [6]", "value": 27.2, "unit": "MFI"}, {"measurement": "fluorescence intensity", "setting": "[1]; [7]", "value": 27.5, "unit": "MFI"}, {"measurement": "fluorescence intensity", "setting": "[1]; [8]", "value": 26, "unit": "MFI"}, {"measurement": "fluorescence intensity", "setting": "[1]; [9]", "value": 28.5, "unit": "MFI"}, {"measurement": "fluorescence intensity", "setting": "[1]; [10]", "value": 27, "unit": "MFI"}, {"measurement": "fluorescence intensity", "setting": "[1]; [11]", "value": 29, "unit": "MFI"}, {"measurement": "fluorescence intensity", "setting": "[1]; [12]", "value": 39, "unit": "MFI"}, {"measurement": "fluorescence intensity", "setting": "[2]; [6]", "value": 20.8, "unit": "MFI"}, {"measurement": "fluorescence intensity", "setting": "[2]; [7]", "value": 21.5, "unit": "MFI"}, {"measurement": "fluorescence intensity", "setting": "[2]; [8]", "value": 20.5, "unit": "MFI"}, {"measurement": "fluorescence intensity", "setting": "[2]; [9]", "value": 22, "unit": "MFI"}, {"measurement": "fluorescence intensity", "setting": "[2]; [10]", "value": 20, "unit": "MFI"}, {"measurement": "fluorescence intensity", "setting": "[2]; [11]", "value": 23.5, "unit": "MFI"}, {"measurement": "fluorescence intensity", "setting": "[2]; [12]", "value": 32, "unit": "MFI"}, {"measurement": "fluorescence intensity", "setting": "[3]; [6]", "value": 13.5, "unit": "MFI"}, {"measurement": "fluorescence intensity", "setting": "[3]; [7]", "value": 13, "unit": "MFI"}, {"measurement": "fluorescence intensity", "setting": "[3]; [8]", "value": 13, "unit": "MFI"}, {"measurement": "fluorescence intensity", "setting": "[3]; [9]", "value": 14.5, "unit": "MFI"}, {"measurement": "fluorescence intensity", "setting": "[3]; [10]", "value": 12.8, "unit": "MFI"}, {"measurement": "fluorescence intensity", "setting": "[3]; [11]", "value": 14, "unit": "MFI"}, {"measurement": "fluorescence intensity", "setting": "[3]; [12]", "value": 16.5, "unit": "MFI"}, {"measurement": "fluorescence intensity", "setting": "[4]; [6]", "value": 25.5, "unit": "MFI"}, {"measurement": "fluorescence intensity", "setting": "[4]; [7]", "value": 26, "unit": "MFI"}, {"measurement": "fluorescence intensity", "setting": "[4]; [8]", "value": 26.5, "unit": "MFI"}, {"measurement": "fluorescence intensity", "setting": "[4]; [9]", "value": 26.8, "unit": "MFI"}, {"measurement": "fluorescence intensity", "setting": "[4]; [10]", "value": 26.5, "unit": "MFI"}, {"measurement": "fluorescence intensity", "setting": "[4]; [11]", "value": 27.5, "unit": "MFI"}, {"measurement": "fluorescence intensity", "setting": "[4]; [12]", "value": 27.5, "unit": "MFI"}, {"measurement": "fluorescence intensity", "setting": "[5]; [6]", "value": 24, "unit": "MFI"}, {"measurement": "fluorescence intensity", "setting": "[5]; [7]", "value": 25.5, "unit": "MFI"}]}]}
